Laboratory results published in the supplement of paper PMC10735217.
Values joined by “and” are separate entries in the source; they are usually repeats but may differ in a detail not shown here. Equal entries are not always repeated. Structures can show the parent of a compound that is named as a salt. The list shows a part of the results. Repeats in this data set agree poorly, so a single value says little.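 In a drug-repurposing library screen, luminescence reads luciferase driven by eight TEAD-binding elements, stably integrated into human kidney-derived cells. Compounds scoring over five robust Z scores above the plate mean are called hits.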

Tested on: HEK293A TEAD-LUC reporter
Assay: TEAD-luciferase reporter activity (YAP activation), robust Z score vs plate; higher = stronger YAP/TEAD activation
Details: 24 h

SMILES | TEAD-luciferase reporter activity (compound concentration: 200 nM) | TEAD-luciferase reporter activity (compound concentration: 2 uM) | TEAD-luciferase reporter activity (compound concentration: 10 uM)
N[C@H]1CC[C@H](c2ccc(Cl)c(Cl)c2)c2ccccc21 [Dasotraline] | inactive: 3.19 | inactive: 1.65 | inactive: 1.15
Cn1cnc2c1c(=O)[nH]c(=O)n2C | inactive: -0.0797 | inactive: -0.806 and inactive: -0.996 | inactive: -0.624
O=C(NC[C@H](O)CO)c1ccncc1Nc1ccc(I)cc1F [anticancer, Merck KGaA] | inactive: -0.764 | inactive: -0.347 | inactive: -0.671
CC(=O)N1Cc2ccccc2CC12CCCN(C(=O)Cc1ccc(O)cc1)C2 (stereo unspecified) | inactive: -1.2 | – | inactive: 0.327
Cc1c(Cl)cccc1Nc1ccccc1C(=O)O [Tolfenamic Acid] | inactive: -0.406 | – | inactive: 0.794
Cc1c(Cl)cccc1Nc1ccccc1C(=O)O [tolfenamic acid] | – | inactive: -1.1 | –
NC[C@@H]1O[C@H](C23CC4CC(CC(C4)C2)C3)Cc2c1ccc(O)c2O | inactive: -1.46 | inactive: -0.681 | inactive: -0.392
CCOc1ccn(-c2ccc(F)cc2)c(=O)c1C(=O)Nc1ccc(Oc2ccnc(N)c2Cl)c(F)c1 | inactive: -1.08 | inactive: -1.28 | inactive: -0.715
COc1cc2c(N3CCN(C(=O)Nc4ccc(OC(C)C)cc4)CC3)ncnc2cc1OCCCN1CCOCC1 | inactive: -1.1 | inactive: -0.977 | inactive: 0.726
CC(=O)[C@H]1CC[C@H]2[C@@H]3CC=C4C[C@@H](OS(=O)(=O)O)CC[C@]4(C)[C@H]3CC[C@]12C | inactive: -0.376 | inactive: 0.0451 | inactive: 0.851
CC(=O)C1=C([O][Pt-2]2([O]C3=C(C(C)=O)C(=O)O[C@H]3C)[NH2+][C@@H]3CCCC[C@H]3[NH2+]2)[C@H](C)OC1=O | inactive: -0.97 | inactive: -0.704 | inactive: 1.58
CC(=O)NS(=O)(=O)c1ccc(NC(=O)c2ccccc2C(=O)O)cc1 | inactive: 1.51 | inactive: 0.731 | inactive: -0.199
Cc1c(CC(=O)O)c2cccnc2n1Cc1ccc(S(C)(=O)=O)cc1C(F)(F)F [Fevipiprant] | inactive: 1.48 | inactive: -0.927 | inactive: -0.0143
COc1ccc(C(=O)NCc2ccc(OCCN(C)C)cc2)cc1OC | inactive: 0.997 | – | inactive: -1.03
COc1ccc(C(=O)NCc2ccc(OCCN(C)C)cc2)cc1OC [itopride hydrochloride ER] | – | inactive: -1.23 | –
Clc1ccc(/C(=C\c2ccc(Cl)cc2Cl)Cn2ccnc2)cc1 | inactive: -0.86 | inactive: -0.736 | inactive: -0.921
CC(C)Oc1ccc2oc3ccc(C(=O)O)cc3c(=O)c2c1 [Xanoxic acid] | inactive: 2.13 | inactive: -1.73 | inactive: 2.27
NC(=O)C1c2ccccc2CCc2ccccc21 | inactive: 2.6 | inactive: -0.967 | inactive: -1.4
COc1c(C(C)C(=O)S[C@@H](C)C(=O)NCC(=O)O)ccc2ccccc12 (stereo partly specified) | inactive: -0.266 | inactive: 0.276 | inactive: -0.122
CN(C)CCOC(c1ccccc1)c1ccnn1C (stereo unspecified) [Cizolirtine citrate] | inactive: -0.147 | inactive: -1.26 | inactive: -0.469

SMILES | TEAD-luciferase reporter activity (compound concentration: 200 nM) | TEAD-luciferase reporter activity (compound concentration: 2 uM) | TEAD-luciferase reporter activity (compound concentration: 10 uM)
Cc1nc(-c2ccc(C(F)(F)F)cc2)sc1COc1ccc(C(=N)NO)c(Cl)c1 | inactive: -1.16 | inactive: -0.345 | inactive: 2.27
Nc1ccc2cc3ccc(N)cc3nc2c1 [Proflavine] | inactive: 1.5 | inactive: 3.54 | inactive: -1.18
CONC(=O)c1ccccc1Nc1cc(Nc2cc(C)nn2C(C)C)ncc1Cl | inactive: -0.58 | inactive: -1.39 | inactive: -1.67
C[C@@H](OC(C)(C)C)[C@H](NC(=O)OCc1ccccc1)C(=O)OCc1ccccc1 | inactive: 1.37 | inactive: 1.62 | inactive: -2.16
OCc1cccnc1 | inactive: -0.985 | inactive: -1.06 | inactive: -0.195
O=C(CCCN1CCC(O)(c2cccc(C(F)(F)F)c2)CC1)c1ccc(F)cc1 | inactive: 1.87 | inactive: -0.327 | inactive: 2.61
CC(=O)c1cc2c(o1)C(=O)c1ccccc1C2=O [Napabucasin] | inactive: 0.822 | inactive: -1.19 | inactive: -1.46
OC[C@H]1O[C@H](O[C@]2(CCl)O[C@H](CCl)[C@@H](O)[C@@H]2O)[C@H](O)[C@@H](O)[C@H]1Cl | inactive: 2.24 | inactive: -1.4 | inactive: 3.92
CNC(=O)c1c[nH]c2cccnc12 | inactive: -2.45 | – | active: 8.17
CC1SC(=O)NN=C1c1ccncc1 (stereo unspecified) | inactive: -0.267 | inactive: 0.41 | inactive: -1.04
CC[C@H](CC#N)OC(=O)NC(C)c1cccc(NC(=O)Nc2ccc(C#N)c(OC)c2)c1 (stereo partly specified) | inactive: -0.466 | inactive: -0.75 | active: 6.3
COc1cc2nc(N3CCN(C(=O)c4nnc(SC)o4)CC3)nc(N)c2cc1OC [tiodazosin] | inactive: -0.61 | inactive: 1.11 | inactive: -0.0277
O=C1CCc2cc(OCCCCc3nnnn3C3CCCCC3)ccc2N1 [cilostazol SR] | inactive: -0.778 | inactive: 1.94 | inactive: -0.866
COc1ccc(CCN(C)CCOc2ccc(NS(C)(=O)=O)cc2N)cc1OC | inactive: -0.256 | inactive: -0.271 | inactive: 1.42
COc1ccc(Oc2cc(N(C)CCOc3ccc(CC4SC(=O)NC4=O)cc3)ncn2)cc1 (stereo unspecified) | inactive: -0.814 | inactive: -0.555 | inactive: 2.64
CCCC(=O)Nc1ccc(OCC(O)CNC(C)C)c(C(C)=O)c1 (stereo unspecified) | inactive: -1.21 | – | active: 5.89
CCCC(=O)Nc1ccc(OCC(O)CNC(C)C)c(C(C)=O)c1 (stereo unspecified) [acebutolol] | – | inactive: 0.106 | –
O=C(Cc1cccc(Cl)c1)N1CCC(n2c(=O)[nH]c3ccccc32)CC1 | inactive: -0.851 | – | inactive: -0.953
Oc1nc(S)ncc1I | inactive: -0.763 | inactive: 1.88 | inactive: -0.591
Cc1cc(C)n(-c2ccccc2O)n1 | inactive: -0.868 | inactive: -0.436 | inactive: -1.08

Part of the list above, tab-delimited:
SMILES	TEAD-luciferase reporter activity (compound concentration: 200 nM)	TEAD-luciferase reporter activity (compound concentration: 2 uM)	TEAD-luciferase reporter activity (compound concentration: 10 uM)
O=C(NC[C@H](O)CO)c1ccncc1Nc1ccc(I)cc1F [anticancer, Merck KGaA]	inactive: -0.764	inactive: -0.347	inactive: -0.671
Cc1c(Cl)cccc1Nc1ccccc1C(=O)O [Tolfenamic Acid]	inactive: -0.406	–	inactive: 0.794
CC(=O)[C@H]1CC[C@H]2[C@@H]3CC=C4C[C@@H](OS(=O)(=O)O)CC[C@]4(C)[C@H]3CC[C@]12C	inactive: -0.376	inactive: 0.0451	inactive: 0.851
CC(=O)NS(=O)(=O)c1ccc(NC(=O)c2ccccc2C(=O)O)cc1	inactive: 1.51	inactive: 0.731	inactive: -0.199
COc1ccc(C(=O)NCc2ccc(OCCN(C)C)cc2)cc1OC	inactive: 0.997	–	inactive: -1.03
COc1c(C(C)C(=O)S[C@@H](C)C(=O)NCC(=O)O)ccc2ccccc12 (stereo partly specified)	inactive: -0.266	inactive: 0.276	inactive: -0.122
Cc1nc(-c2ccc(C(F)(F)F)cc2)sc1COc1ccc(C(=N)NO)c(Cl)c1	inactive: -1.16	inactive: -0.345	inactive: 2.27
Nc1ccc2cc3ccc(N)cc3nc2c1 [Proflavine]	inactive: 1.5	inactive: 3.54	inactive: -1.18
C[C@@H](OC(C)(C)C)[C@H](NC(=O)OCc1ccccc1)C(=O)OCc1ccccc1	inactive: 1.37	inactive: 1.62	inactive: -2.16
O=C(CCCN1CCC(O)(c2cccc(C(F)(F)F)c2)CC1)c1ccc(F)cc1	inactive: 1.87	inactive: -0.327	inactive: 2.61
CNC(=O)c1c[nH]c2cccnc12	inactive: -2.45	–	active: 8.17
CC1SC(=O)NN=C1c1ccncc1 (stereo unspecified)	inactive: -0.267	inactive: 0.41	inactive: -1.04
COc1cc2nc(N3CCN(C(=O)c4nnc(SC)o4)CC3)nc(N)c2cc1OC [tiodazosin]	inactive: -0.61	inactive: 1.11	inactive: -0.0277
O=C1CCc2cc(OCCCCc3nnnn3C3CCCCC3)ccc2N1 [cilostazol SR]	inactive: -0.778	inactive: 1.94	inactive: -0.866
CCCC(=O)Nc1ccc(OCC(O)CNC(C)C)c(C(C)=O)c1 (stereo unspecified) [acebutolol]	–	inactive: 0.106	–
Oc1nc(S)ncc1I	inactive: -0.763	inactive: 1.88	inactive: -0.591

The list goes on:

SMILES | TEAD-luciferase reporter activity (compound concentration: 200 nM) | TEAD-luciferase reporter activity (compound concentration: 2 uM) | TEAD-luciferase reporter activity (compound concentration: 10 uM)
Cc1cccc2cc(CN(Cc3cc(C(F)(F)F)cc(C(F)(F)F)c3)c3nnn(C)n3)c(N(CC3CC3)CC3CC3)nc12 | inactive: -0.32 | inactive: -1.28 | inactive: -0.165
C=CCc1c(OCc2ccccn2)ccc2c1CN1C(=O)CN(C3CCCC3)C(=O)[C@H]1C2 | inactive: -2.42 | inactive: -0.462 | inactive: 2.73
Cc1cc(C)c(N(C)CC(=O)Nc2nc(-c3ccccn3)c[nH]2)c(C)c1 | inactive: -1.34 | inactive: -0.279 | inactive: -0.855
Cc1cc2c(cc1C(=O)Oc1ccc(C(=O)O)cc1)C(C)(C)CCC2(C)C | inactive: -1.39 | inactive: 3.39 | inactive: 2.03
CCOC(=O)/C=C1\SC(N2CCCC2)C(=O)N1C (stereo unspecified) | inactive: 0.376 | inactive: -0.986 | inactive: 1.92
CSc1ccc(Oc2ccc(S(N)(=O)=O)cc2CN(C)C)cc1C | inactive: -0.94 | inactive: 2.04 | inactive: -0.0706
Cc1cc(C(=O)Nc2nc3cccc(Cl)c3n2[C@@H]2CCCCN(C(=O)/C=C/CN(C)C)C2)ccn1 [Nazartinib] | inactive: -2.2 | inactive: -0.213 | inactive: -0.765
CCCn1c(=O)c2[nH]c(C34CC5CC3CC(C4)C5O)nc2n(CCC)c1=O (stereo unspecified) | inactive: 1.55 | inactive: -1.12 | inactive: 2.56
Cc1nc(Nc2ncc(N3CCN(C)[C@H](C)C3)c(Nc3cc(C)n(C)n3)n2)cc(C2CC2)c1F | inactive: 1.05 | – | inactive: -0.0673
O=C(O)CCCCC(CCSCc1ccccc1)SCc1ccccc1 (stereo unspecified) [AML therapy, Cornerstone Pharmaceuticals] | inactive: -2.33 | inactive: 3.29 | active: 11.3
Cc1c(S(=O)(=O)Nc2ccc(-c3nc(C(=O)O)cs3)cc2S(C)(=O)=O)sc2ccc(F)cc12 | inactive: -1.17 | inactive: 2.63 | inactive: -1.73
Cc1ccc(CCSC(Cc2ccc(CCOc3ccc(OS(C)(=O)=O)cc3)cc2)C(=O)O)cc1 (stereo unspecified) | inactive: -0.818 | inactive: -0.403 | inactive: -0.206
Cc1ccc2c(Br)cc(Br)c(OC(=O)c3cccc(F)c3)c2n1 | inactive: 0.214 | inactive: 3.53 | inactive: 1.19
CCONC(=O)c1cc(Br)ccc1O | inactive: 0.138 | inactive: -1.13 | inactive: -0.267
CC1=C(/C=C/C(C)=C/C=C/C(C)=C/C(=O)O)C(C)(C)CCC1 [trans-Retinoic acid302-79-4] | inactive: -0.81 | – | inactive: 0.0201
CC1=C(/C=C/C(C)=C/C=C/C(C)=C/C(=O)O)C(C)(C)CCC1 [Tretinoin] | – | inactive: 0.755 | –
c1ccc(-c2nnc(NC3CCCCCCC3)c3ccccc23)cc1 | inactive: -2.53 | inactive: -0.52 | inactive: -0.961
Cc1ccc(C)n1Nc1ccc(N2CCOCC2)nn1 [mopidralazine] | inactive: -1.41 | inactive: 0.00211 | inactive: 0.917
Cn1cc2c(-c3ccc(F)cc3)c(-c3ccncc3)c(-c3ccc(F)cc3)nc2n1 | inactive: -0.507 | inactive: -2.43 | inactive: -0.34
